Experimental data published in article PMC9270398.
These are yes or no findings as the source states them, for the method shown. Binding seen in cells or lysates may run through a third protein. A result given as binding can be weak or reduced; the word gives no strength.

Biological target: T1, TRIM24, endogenous in mouse liver / primary hepatocytes (mouse (endogenous in primary hepatocytes)) (UniProt Q64127)
T1 sequence: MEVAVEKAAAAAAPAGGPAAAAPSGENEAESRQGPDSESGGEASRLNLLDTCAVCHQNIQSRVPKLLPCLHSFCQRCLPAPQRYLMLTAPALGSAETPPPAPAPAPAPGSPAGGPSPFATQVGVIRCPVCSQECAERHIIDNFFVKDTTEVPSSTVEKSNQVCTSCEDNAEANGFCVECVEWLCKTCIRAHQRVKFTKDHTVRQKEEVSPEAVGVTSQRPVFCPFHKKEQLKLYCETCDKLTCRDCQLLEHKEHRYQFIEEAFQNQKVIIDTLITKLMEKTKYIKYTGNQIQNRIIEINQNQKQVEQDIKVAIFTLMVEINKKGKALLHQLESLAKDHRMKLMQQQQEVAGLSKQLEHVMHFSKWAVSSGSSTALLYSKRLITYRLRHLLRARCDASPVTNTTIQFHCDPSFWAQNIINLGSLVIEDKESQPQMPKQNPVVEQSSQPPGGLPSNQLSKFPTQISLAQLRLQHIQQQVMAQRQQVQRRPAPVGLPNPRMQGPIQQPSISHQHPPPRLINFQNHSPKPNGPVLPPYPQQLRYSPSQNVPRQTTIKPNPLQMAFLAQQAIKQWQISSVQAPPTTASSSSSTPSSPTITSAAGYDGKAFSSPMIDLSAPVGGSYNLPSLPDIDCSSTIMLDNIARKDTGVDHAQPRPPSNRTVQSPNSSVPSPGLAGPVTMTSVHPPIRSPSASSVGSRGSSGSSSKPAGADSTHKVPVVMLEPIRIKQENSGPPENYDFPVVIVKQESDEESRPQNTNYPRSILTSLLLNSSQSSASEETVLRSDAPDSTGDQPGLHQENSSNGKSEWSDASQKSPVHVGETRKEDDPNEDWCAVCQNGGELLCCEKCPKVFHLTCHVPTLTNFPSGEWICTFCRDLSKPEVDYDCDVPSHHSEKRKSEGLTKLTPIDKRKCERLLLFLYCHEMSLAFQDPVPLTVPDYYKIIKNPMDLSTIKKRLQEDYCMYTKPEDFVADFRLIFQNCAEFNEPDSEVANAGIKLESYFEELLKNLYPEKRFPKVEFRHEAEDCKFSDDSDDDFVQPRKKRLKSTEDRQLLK
Assay: co-IP; endogenous TRIM24 immunoprecipitated with the TRIM24 antibody from lysates of mouse primary hepatocytes (text: liver lysates); endogenous P-body components detected by immunoblotting

- binding: binds
Substance: DCP1, endogenous in mouse liver / primary hepatocytes
